PubChem BioAssay AID2517 (National Center for Advancing Translational Sciences (NCATS), 2010)
The campaign covered roughly 350,000 compounds. About 1,200 (0.34%) were called active. This list was built around the results that the source calls inconclusive (neither active nor inactive); the mix of calls is not that of the screen. Calls follow the shape of the dose curve; as a rule, active = well fitted inhibition curve with a large enough effect; inconclusive = small, poorly fitted or top-dose-only effect; inactive = no such curve, though single readings can be large or run the other way. Potencies beside an inconclusive call are fits to weak or partial responses and may not hold up.

By UniProt entry, the sequences of proteins in these tests, tags left out.
UniProt P27695, whole entry, looked up: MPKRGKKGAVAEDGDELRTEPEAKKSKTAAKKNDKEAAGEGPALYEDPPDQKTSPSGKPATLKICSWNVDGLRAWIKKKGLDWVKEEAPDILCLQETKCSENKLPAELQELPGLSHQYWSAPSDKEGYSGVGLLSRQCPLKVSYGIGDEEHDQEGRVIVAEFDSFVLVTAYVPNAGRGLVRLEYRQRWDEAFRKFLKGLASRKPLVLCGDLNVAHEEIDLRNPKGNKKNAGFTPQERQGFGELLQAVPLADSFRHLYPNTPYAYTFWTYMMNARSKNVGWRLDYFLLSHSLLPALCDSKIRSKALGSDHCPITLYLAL

biological target: DNA repair nuclease/redox regulator APEX1 (Homo sapiens) (UniProt P27695); assay: qHTS Assay for Inhibitors of the Human Apurinic/apyrimidinic Endonuclease 1 (APE1); conditions: recombinant APE1, TAMRA/BHQ-2 abasic DNA cleavage fluorescence; activity change, negative = inhibition: at 65.8 µM (top of the series); also: nearly all actives have a fitted effect of over 55% in size;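 as to activity change, negative = inhibition: plate controls were vehicle for no effect and reference inhibitor for full effect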
Excerpt: The apurinic/apyrimidinic endonuclease APE1 is the primary mammalian enzyme responsible for the removal of abasic (or AP) sites in DNA and functions centrally in the base excision DNA repair (BER) pathway. […] Thus, targeting APE1 could improve the efficacy of current treatment paradigms by promoting selective sensitization or protection of diseased and normal cells, respectively.
Inhibition of APE1 activity was screened by utilizing double-stranded short substrate containing tetrahydrofuran (THF) abasic site labeled with rhodamine-type fluorophore (TAMRA) at the 5'-end and with non-fluorescent Black Hole Quencher-2 (BHQ-2) at the opposing 3'-end. An increase in the fluorescence intensity due to incision of the abasic site by APE1 was used to measure the enzyme activity.
NIH Chemical Genomics Center [NCGC]
NIH Molecular Libraries Probe Centers Network [MLPCN]
Assay Provider: David M. Wilson, III, National Institute on Aging, NIH
Three uL of enzyme solution (0.75 nM APE1 final concentration) was dispensed to 1536-well Greiner black solid bottom plates. […] The plates were incubated for 15 min at room temperature, and then 1 uL of substrate solution (50 nM final concentration of TAMRA/BHQ-2) was added to start the reaction. The plates were immediately transferred into ViewLux High-throughput CCD imager (Perkin-Elmer) in order to measure the reaction progress in kinetic mode (three reads every 60 seconds) using 525 nm excitation and 598 nm emission fluorescence protocol. The fluorescence intensity difference between the third and the first time points was used to compute reaction progress. Results were normalized to buffer only columns and NSC13755 positive controls and negative control DMSO treated wells.
Potency is read from the fitted curve at half-maximal effect.

Compound | activity change, negative = inhibition | Potency
CN(C)c1ccc(CN(C(=O)/C=C/c2ccco2)C2CCS(=O)(=O)C2)cc1 (stereo unspecified) | inactive: 15.5% | –
COc1ccccc1-c1nccc(NC2CCNCC2)n1 | inactive: -2.01% | –
Cc1cc(C(=O)C(C)OC(=O)C2=NNC(=O)CC2)c(C)n1-c1ccc(OC(F)F)cc1 (stereo unspecified) | – | inconclusive: 2.24 µM [inhibitor, full curve, poor fit]
CC1CCN(C2CC(=O)N(c3ccc(Br)cc3Br)C2=O)CC1 (stereo unspecified) | – | inconclusive: 0.0089 µM [inhibitor, full curve, poor fit]
CCOc1cc(/C=C2/C(=N)N3C(=NC2=O)SN=C3S(C)(=O)=O)ccc1OS(=O)(=O)c1ccccc1 | inactive: -7.32% | –
CCCCc1cn(C[C@H]2CC[C@@H]([C@@H]3CC[C@H](Cn4cc(CCCC)nn4)O3)O2)nn1 | inactive: 7.37% | –
Cc1nn(-c2ccccc2)c2sc(-c3nnc(SCC(=O)O)o3)cc12 | – | inconclusive: 3.16 µM [inhibitor, full curve]
CC1CCCCN1C(=O)CSc1nnc(CSc2ncccn2)n1C (stereo unspecified) | – | inconclusive: 3.98 µM [inhibitor, single point]
C=C(C)C(=O)Nc1cccc(C2=NOC3(C2)C[C@@H](C(N)=O)N(C(=O)c2ccc(OC)cc2)C3)c1 (stereo partly specified) | – | inconclusive: 20 µM [inhibitor, single point]
COc1cc2cc(CN(Cc3nnnn3Cc3ccco3)C3CCCCC3)c(=O)[nH]c2cc1OC | – | inconclusive: 28.2 µM [inhibitor, partial curve]
Cc1nn(-c2ccccc2)c2c1C(c1c(C)[nH]c(C#N)c1C)C(C#N)=C(N)O2 (stereo unspecified) | – | inconclusive: 39.8 µM [inhibitor, single point]
COc1cc(C(=O)O)cc(OC)c1OCc1cc(C(=O)O)oc1C | – | inconclusive: 5.01 µM [inhibitor, full curve]
CCC(C)(C)n1nnnc1C(c1ccc(N(C)C)cc1)N1CCN(C2CCCCC2)CC1 (stereo unspecified) | – | inconclusive: 7.08 µM [inhibitor, single point]
O=C(CSc1nc2ccccc2c(=O)[nH]1)c1ccc(O)c(O)c1 | – | inconclusive: 20 µM [inhibitor, single point]
O=C(O)c1cc2cc(Cl)cc(Cl)c2oc1=O | inactive: -6.16% | –
COC(=O)C1=CN(Cc2ccc(OC)cc2)C=C(C(=O)OC)C1c1cccs1 | – | inconclusive: 44.7 µM [inhibitor, single point]
CCC(=O)Nc1ccc2c(c1)ncn2-c1ccccc1 | – | inconclusive: 44.7 µM [inhibitor, partial curve, poor fit]
O=C(Nc1cccc(S(=O)(=O)N2CCCCC2)c1)c1c2c(nc3ccccc13)CCN(Cc1ccccc1)C2 | – | inconclusive: 44.7 µM [inhibitor, partial curve, poor fit]
NC[C@H]1O[C@H](O[C@H]2[C@H](O)[C@@H](O[C@H]3O[C@H](CO)[C@@H](O)[C@H](N)[C@H]3O)[C@H](N)C[C@@H]2N)[C@H](O)[C@@H](O)[C@@H]1O | inactive: -2.49% [at 21 µM] | –
COC(=O)c1c(NC(=O)CSc2nnc(C)c(=O)[nH]2)sc(C)c1C | – | inconclusive: 44.7 µM [inhibitor, single point]
O=C(/C=C/c1ccc(O)c(O)c1)c1ccc(O)cc1O | – | inconclusive: 20 µM [inhibitor, single point]

Compound | activity change, negative = inhibition | Potency
COC(=O)c1ccc2nc(C(F)(F)F)[nH]c2c1 | – | inconclusive: 44.7 µM [inhibitor, single point]
CCOC(=O)C1=C(C)NC(=O)C(C(N)=O)C12CCCC2 (stereo unspecified) | – | inconclusive: 28.2 µM [inhibitor, single point]
O=C(c1ccc(C(F)(F)F)cc1)N1CCC(=O)N(C(COCc2ccccc2)Cc2ccccc2)CC1 (stereo unspecified) | – | inconclusive: 3.98 µM [inhibitor, single point]
CCN(CC)C(=O)CSc1nc2ccc(NC(=O)CSc3nnc(N)s3)cc2s1 | – | inconclusive: 35.5 µM [inhibitor, partial curve]
Cc1oc2nc(SCC(=O)NCCCO)nc(N)c2c1C | – | inconclusive: 39.8 µM [inhibitor, single point]
N#Cc1nc(N2CCOCC2)nc(N2CCOCC2)n1 | – | inconclusive: 44.7 µM [inhibitor, single point]
COc1ccc(-n2c(CNC(=O)COc3ccc(Cl)cc3)n[nH]c2=S)cc1 | – | inconclusive: 12.6 µM [inhibitor, partial curve]
O=C1NC[C@@H](c2ccccc2)OC(=O)[C@H](Cc2ccc(F)cc2)C/C=C\C[C@@H]1CC(=O)N(CCO)Cc1ccccc1 | – | inconclusive: 16.8 µM [inhibitor, partial curve]
O=C(NC(=S)Nc1cc(-c2nc3ccccc3[nH]2)ccc1Cl)c1ccc2c(c1)OCO2 | – | inconclusive: 17.8 µM [inhibitor, partial curve]
CCn1nnc(NC(=O)CSc2ccc(Cl)cc2)n1 | – | inconclusive: 39.8 µM [inhibitor, single point]
O=C(CSc1ccsc1[N+](=O)[O-])Nc1cccc(F)c1 | – | inconclusive: 25.1 µM [inhibitor, partial curve]
Cc1nc(SCn2nnc3ccccc3c2=O)c2c(C)c(C)sc2n1 | – | inconclusive: 0.0009 µM [inhibitor, full curve, poor fit]
Cc1nc2ccc(-c3nc4ccccc4[nH]3)cc2[nH]1 | – | inconclusive: 0.631 µM [inhibitor, full curve]
CCCCN(C(=O)Cn1nnc2ccccc21)C(C(=O)NCCOC)c1ccccc1 (stereo unspecified) | – | inconclusive: 11.2 µM [inhibitor, partial curve, poor fit]
O=C(CN1CCN(S(=O)(=O)c2ccc(Cl)cc2)CC1)c1ccc(O)c(O)c1 | inactive: -2.3% | –
Nc1c2c(nc3ccccc13)CCCC2 | – | inconclusive: 25.1 µM [inhibitor, partial curve, poor fit]
COC(=O)/C=C/C(=O)N1CCN(c2ccccc2C)CC1 | – | inconclusive: 2.82 µM [inhibitor, partial curve, poor fit]
COC(=O)c1c(NC(=O)Cc2cccs2)sc(C)c1C | – | inconclusive: 20 µM [inhibitor, partial curve, poor fit]
CCOC(=O)c1c(C2CC2)csc1NC(=O)COC(=O)c1ccc[n+]([O-])c1 | – | inconclusive: 11.2 µM [inhibitor, partial curve, poor fit]
C[C@@H](C(=O)NCCc1c[nH]c2ccccc12)[C@@H]1C[C@@]1(C)[C@@H](NC(=O)OCc1ccccc1)c1ccccc1 | – | inconclusive: 7.94 µM [inhibitor, single point]
CC(=O)c1ccc(OCCCC(=O)OCc2nnc(-c3ccc(Cl)cc3)o2)cc1 | – | inconclusive: 44.7 µM [inhibitor, single point]

Compound | activity change, negative = inhibition | Potency
Cc1ccc2c(c1)[nH]c1c(N3CCN(Cc4ccccc4)CC3)ncnc12 | – | inconclusive: 5.62 µM [inhibitor, single point]
CS(=O)(=O)c1cnc2c(S(=O)(=O)c3ccccc3)cnn2c1N | – | inconclusive: 44.7 µM [inhibitor, single point]
CCCOc1ccc(N2C(=O)CC(N(CCc3ccc(OC)c(OC)c3)C(=S)Nc3ccccc3)C2=O)cc1 (stereo unspecified) | inactive: 6.7% | –
O=C(CSc1nnnn1-c1cccc(F)c1)NC1CCCCC1 | inactive: 13.4% | –
COC(=O)c1cc(OC)c(OC)cc1NC(=O)CSc1ccccc1 | – | inconclusive: 0.178 µM [inhibitor, full curve, poor fit]
Cc1cc(C(=O)N/N=C/c2cc(Br)ccc2OC(=O)c2ccccc2)n[nH]1 | – | inconclusive: 31.6 µM [inhibitor, single point]
N#CCC(=O)Nc1ccc(C(=O)OCC(=O)NC(=O)Nc2ccc3c(c2)OCCO3)cc1 | inactive: 48.2% | –
CCOC(=O)C1=C(N)OC2=C(C(=O)CCC2)C1c1ccco1 (stereo unspecified) | – | inconclusive: 28.2 µM [inhibitor, partial curve, poor fit]
Cc1ncc(/C=C2\C(=O)Nc3ccccc32)[nH]1 | – | inconclusive: 5.01 µM [inhibitor, partial curve, poor fit]
O=C(c1ccc(-c2ccccc2)cc1)N1CCN(c2ccccn2)CC1 | – | inconclusive: 0.0013 µM [inhibitor]
CCCN(C(=O)CCl)C1=CCCCC1 | – | inconclusive: 70.8 µM [inhibitor, single point]
CC(=O)Nc1ccc2c(c1)nc1n2CCSC1 | – | inconclusive: 25.1 µM [inhibitor, single point]
CC1=CC(C)(C)n2c(O)c(N=N)c3cc(C)cc1c32 | – | inconclusive: 17.8 µM [inhibitor, single point]
C#CCNC(=O)C1=C[C@H](c2ccc(C(F)(F)F)cc2)C[C@H](OCc2ccc(CO)cc2)O1 | – | inconclusive: 7.08 µM [inhibitor, full curve]
Cc1cc2nc3ccc(=[N+](C)C)cc-3sc2cc1N | – | inconclusive: 39.8 µM [inhibitor, single point]
Nc1sc(-c2ccccc2)c(Cc2ccccc2)c1C(=O)O | – | inconclusive: 0.0355 µM [inhibitor, full curve, poor fit]
N#C/C(=C\c1ccc(-c2cccc([N+](=O)[O-])c2)o1)C(=O)NCCN1CCOCC1 | – | inconclusive: 15.8 µM [inhibitor, partial curve]
Cc1ccc(C(=O)Nc2c3c(nn2C(C)(C)C)CS(=O)(=O)C3)cc1C | – | inconclusive: 12.6 µM [inhibitor, partial curve]
Cc1cccc(-c2n[nH]c(=S)n2/N=C/C=C/c2ccco2)c1 | – | inconclusive: 4.47 µM [inhibitor, partial curve, poor fit]

Full records, quoted from the list:
`O=C(c1ccc(C(F)(F)F)cc1)N1CCC(=O)N(C(COCc2ccccc2)Cc2ccccc2)CC1` (stereo unspecified) is listed with Potency: inconclusive: 3.98 µM [inhibitor, single point]
`N#CCC(=O)Nc1ccc(C(=O)OCC(=O)NC(=O)Nc2ccc3c(c2)OCCO3)cc1` is listed with activity change, negative = inhibition: inactive: 48.2%
`Nc1c2c(nc3ccccc13)CCCC2` is listed with Potency: inconclusive: 25.1 µM [inhibitor, partial curve, poor fit]
`Cc1ccc2c(c1)[nH]c1c(N3CCN(Cc4ccccc4)CC3)ncnc12` is listed with Potency: inconclusive: 5.62 µM [inhibitor, single point]
